According to the supplement of paper PMC10849652:
Some of the results follow.

Chains of the proteins cited; added tags and fusions are not shown. Lines headed by an entry give the natural chain unless they say otherwise; changes in a name come on top.
UniProt Q8TBC3: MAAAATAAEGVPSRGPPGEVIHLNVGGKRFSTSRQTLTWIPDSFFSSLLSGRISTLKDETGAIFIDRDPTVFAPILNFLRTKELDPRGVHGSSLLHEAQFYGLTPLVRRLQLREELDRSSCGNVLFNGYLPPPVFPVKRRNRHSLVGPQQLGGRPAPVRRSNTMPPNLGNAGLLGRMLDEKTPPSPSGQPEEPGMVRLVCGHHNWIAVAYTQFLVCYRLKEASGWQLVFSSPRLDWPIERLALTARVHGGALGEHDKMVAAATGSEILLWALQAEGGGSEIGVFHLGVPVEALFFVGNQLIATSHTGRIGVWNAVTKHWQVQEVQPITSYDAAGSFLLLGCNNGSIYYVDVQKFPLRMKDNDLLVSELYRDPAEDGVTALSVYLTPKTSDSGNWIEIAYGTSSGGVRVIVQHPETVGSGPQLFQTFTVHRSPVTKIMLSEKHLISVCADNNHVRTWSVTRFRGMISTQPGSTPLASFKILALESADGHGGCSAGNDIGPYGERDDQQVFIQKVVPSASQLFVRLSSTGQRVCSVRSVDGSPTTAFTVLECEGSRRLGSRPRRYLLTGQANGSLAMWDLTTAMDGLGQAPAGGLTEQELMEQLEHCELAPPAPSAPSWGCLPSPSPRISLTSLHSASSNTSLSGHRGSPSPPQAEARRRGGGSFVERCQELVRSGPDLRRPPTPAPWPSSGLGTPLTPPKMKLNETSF
UniProt Q0GE19: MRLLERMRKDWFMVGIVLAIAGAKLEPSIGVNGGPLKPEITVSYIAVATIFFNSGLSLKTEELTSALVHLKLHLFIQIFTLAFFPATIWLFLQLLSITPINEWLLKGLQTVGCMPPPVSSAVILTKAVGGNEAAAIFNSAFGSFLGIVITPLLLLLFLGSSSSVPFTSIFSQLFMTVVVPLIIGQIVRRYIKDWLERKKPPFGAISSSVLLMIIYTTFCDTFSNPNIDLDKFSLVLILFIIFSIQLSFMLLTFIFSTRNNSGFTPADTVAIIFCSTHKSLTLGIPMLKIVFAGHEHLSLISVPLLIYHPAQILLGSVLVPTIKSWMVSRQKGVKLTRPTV
UniProt Q01105, whole entry, looked up: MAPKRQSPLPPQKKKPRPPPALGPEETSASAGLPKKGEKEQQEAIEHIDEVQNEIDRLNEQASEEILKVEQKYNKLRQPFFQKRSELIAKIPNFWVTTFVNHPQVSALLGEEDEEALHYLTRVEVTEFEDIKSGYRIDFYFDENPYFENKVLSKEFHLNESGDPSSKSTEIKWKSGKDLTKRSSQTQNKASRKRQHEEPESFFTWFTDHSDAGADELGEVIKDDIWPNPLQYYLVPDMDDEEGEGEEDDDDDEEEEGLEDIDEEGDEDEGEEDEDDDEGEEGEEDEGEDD
UniProt Q8WVK7: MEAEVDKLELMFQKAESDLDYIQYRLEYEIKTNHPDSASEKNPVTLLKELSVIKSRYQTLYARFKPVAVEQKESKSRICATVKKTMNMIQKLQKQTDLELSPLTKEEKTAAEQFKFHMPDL
UniProt Q8WUM9: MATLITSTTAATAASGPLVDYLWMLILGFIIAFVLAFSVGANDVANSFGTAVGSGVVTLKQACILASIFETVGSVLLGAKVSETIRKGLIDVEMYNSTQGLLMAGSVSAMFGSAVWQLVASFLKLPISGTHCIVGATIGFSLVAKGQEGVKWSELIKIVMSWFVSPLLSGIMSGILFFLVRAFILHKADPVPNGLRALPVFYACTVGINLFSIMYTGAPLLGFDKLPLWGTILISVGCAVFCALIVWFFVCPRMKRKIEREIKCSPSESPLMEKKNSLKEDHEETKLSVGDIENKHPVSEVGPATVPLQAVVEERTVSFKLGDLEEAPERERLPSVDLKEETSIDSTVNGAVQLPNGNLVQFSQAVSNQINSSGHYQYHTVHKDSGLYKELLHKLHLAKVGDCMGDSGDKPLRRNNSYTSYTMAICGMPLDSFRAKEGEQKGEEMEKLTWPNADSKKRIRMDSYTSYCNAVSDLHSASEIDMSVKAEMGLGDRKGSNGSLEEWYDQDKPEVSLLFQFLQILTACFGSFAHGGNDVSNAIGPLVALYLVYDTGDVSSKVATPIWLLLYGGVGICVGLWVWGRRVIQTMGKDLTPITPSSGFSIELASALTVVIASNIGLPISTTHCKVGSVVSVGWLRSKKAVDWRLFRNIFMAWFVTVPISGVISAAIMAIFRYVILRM
UniProt P34896: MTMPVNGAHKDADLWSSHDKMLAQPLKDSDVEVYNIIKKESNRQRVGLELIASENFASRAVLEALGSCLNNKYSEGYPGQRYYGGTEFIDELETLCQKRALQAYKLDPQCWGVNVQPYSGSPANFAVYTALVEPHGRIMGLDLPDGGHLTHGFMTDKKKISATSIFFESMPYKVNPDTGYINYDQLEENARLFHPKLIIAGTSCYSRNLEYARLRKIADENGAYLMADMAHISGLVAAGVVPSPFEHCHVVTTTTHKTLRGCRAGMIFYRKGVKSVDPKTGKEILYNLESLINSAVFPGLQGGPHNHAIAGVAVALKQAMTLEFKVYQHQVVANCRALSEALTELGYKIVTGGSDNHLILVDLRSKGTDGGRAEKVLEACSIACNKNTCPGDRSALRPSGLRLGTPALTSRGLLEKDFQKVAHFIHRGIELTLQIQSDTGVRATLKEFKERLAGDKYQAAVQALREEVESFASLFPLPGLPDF
UniProt Q15758: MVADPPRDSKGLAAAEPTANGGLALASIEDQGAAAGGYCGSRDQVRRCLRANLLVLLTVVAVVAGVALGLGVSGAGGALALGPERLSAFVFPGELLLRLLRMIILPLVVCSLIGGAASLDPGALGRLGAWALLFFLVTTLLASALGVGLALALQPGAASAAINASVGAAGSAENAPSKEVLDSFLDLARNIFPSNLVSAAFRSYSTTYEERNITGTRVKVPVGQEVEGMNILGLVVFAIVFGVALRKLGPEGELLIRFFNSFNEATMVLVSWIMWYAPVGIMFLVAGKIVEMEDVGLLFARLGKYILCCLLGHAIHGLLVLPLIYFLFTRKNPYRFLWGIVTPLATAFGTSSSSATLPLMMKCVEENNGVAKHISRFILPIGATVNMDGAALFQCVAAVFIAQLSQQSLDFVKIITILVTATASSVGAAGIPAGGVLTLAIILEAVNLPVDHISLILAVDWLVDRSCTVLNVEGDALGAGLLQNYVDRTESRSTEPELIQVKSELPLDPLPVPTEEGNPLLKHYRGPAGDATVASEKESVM
UniProt Q9BRV8: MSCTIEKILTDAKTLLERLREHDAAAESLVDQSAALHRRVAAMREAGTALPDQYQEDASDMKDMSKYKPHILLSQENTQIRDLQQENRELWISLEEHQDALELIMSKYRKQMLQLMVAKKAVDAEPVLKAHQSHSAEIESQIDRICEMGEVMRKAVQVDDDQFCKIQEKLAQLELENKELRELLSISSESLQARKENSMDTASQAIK
UniProt Q2M3G4: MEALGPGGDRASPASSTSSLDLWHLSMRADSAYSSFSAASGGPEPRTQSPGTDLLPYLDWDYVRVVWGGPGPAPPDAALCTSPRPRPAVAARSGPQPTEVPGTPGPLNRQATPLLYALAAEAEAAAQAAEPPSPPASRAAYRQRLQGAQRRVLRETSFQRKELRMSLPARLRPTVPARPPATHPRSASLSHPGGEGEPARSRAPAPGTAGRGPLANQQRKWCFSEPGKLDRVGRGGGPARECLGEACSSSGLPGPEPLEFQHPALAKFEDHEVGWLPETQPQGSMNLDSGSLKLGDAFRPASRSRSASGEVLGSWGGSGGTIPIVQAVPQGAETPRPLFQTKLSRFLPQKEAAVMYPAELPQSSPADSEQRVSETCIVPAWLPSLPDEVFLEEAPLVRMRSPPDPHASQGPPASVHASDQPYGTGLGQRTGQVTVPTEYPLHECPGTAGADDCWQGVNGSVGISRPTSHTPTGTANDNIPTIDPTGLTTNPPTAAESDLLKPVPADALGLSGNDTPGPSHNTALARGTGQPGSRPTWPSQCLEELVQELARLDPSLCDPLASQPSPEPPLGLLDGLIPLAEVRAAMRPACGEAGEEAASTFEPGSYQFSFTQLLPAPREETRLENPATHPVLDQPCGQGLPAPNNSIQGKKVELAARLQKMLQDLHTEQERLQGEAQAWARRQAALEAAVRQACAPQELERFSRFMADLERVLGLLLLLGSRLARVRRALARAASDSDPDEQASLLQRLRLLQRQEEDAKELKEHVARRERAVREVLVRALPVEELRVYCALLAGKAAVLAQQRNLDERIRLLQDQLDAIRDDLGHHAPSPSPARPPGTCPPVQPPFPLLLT
UniProt Q13530: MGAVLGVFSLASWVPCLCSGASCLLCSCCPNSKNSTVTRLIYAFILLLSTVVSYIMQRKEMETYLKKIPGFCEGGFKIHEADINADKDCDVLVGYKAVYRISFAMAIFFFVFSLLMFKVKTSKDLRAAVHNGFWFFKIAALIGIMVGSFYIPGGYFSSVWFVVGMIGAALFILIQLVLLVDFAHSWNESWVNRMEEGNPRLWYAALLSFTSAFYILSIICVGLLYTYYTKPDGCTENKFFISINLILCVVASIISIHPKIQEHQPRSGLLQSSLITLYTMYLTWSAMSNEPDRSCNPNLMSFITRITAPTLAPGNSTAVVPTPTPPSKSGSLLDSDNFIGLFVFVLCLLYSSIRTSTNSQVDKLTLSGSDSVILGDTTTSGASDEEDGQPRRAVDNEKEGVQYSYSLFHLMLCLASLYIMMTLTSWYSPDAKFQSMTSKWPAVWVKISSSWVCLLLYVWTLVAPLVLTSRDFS
UniProt Q15427: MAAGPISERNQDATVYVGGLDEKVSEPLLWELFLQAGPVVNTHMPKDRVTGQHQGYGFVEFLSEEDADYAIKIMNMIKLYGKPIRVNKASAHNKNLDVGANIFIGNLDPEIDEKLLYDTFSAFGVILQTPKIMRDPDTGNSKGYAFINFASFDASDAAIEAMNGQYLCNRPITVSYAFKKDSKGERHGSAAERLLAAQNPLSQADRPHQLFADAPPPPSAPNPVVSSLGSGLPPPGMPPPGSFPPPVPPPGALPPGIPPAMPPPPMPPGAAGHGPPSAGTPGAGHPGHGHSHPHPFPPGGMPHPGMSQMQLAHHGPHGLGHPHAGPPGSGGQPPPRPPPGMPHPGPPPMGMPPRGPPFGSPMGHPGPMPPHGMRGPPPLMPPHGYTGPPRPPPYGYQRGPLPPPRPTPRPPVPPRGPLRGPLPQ
UniProt Q96NB2: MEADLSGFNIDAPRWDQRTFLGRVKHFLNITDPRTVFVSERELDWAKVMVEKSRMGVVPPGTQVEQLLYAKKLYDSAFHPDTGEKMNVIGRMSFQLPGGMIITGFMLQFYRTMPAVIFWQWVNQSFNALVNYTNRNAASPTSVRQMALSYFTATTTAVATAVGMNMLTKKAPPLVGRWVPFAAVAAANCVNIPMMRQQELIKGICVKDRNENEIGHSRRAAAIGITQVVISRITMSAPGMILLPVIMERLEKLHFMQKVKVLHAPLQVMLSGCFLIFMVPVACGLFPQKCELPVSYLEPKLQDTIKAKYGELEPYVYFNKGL
UniProt Q12872: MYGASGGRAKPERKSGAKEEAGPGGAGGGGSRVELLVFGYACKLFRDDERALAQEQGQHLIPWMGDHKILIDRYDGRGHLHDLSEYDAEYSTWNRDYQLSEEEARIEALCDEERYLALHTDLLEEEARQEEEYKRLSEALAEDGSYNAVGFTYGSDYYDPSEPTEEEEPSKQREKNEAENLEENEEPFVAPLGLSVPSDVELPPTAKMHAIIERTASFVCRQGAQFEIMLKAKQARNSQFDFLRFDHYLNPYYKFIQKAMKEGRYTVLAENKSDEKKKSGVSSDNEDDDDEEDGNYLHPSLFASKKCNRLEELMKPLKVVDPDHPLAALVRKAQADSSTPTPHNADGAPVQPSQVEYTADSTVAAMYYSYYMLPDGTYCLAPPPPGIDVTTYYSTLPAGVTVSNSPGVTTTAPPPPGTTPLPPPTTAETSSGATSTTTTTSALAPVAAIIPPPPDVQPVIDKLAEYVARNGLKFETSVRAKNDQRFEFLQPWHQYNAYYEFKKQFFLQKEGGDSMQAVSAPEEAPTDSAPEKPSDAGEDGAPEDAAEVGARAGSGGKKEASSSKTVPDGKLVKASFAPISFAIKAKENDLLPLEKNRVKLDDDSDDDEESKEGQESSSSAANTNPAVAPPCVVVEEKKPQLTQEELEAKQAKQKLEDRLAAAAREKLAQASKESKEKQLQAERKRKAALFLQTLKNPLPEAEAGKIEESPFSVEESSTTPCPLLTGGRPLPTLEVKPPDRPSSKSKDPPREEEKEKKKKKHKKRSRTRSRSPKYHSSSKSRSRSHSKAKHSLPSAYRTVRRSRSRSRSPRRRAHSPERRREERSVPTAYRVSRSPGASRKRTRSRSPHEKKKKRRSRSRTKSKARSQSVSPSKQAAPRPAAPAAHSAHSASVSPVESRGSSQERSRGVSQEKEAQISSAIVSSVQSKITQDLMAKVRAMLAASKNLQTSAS

Columns and labels:
Assay in all cases: log2 fold change, soluble protein after heating vs DMSO (PISA); higher = thermal stabilisation; K562 lysate, 10 uM; active = over 0.2 and 3.5 SD of the protein, either way, in both replicates (recomputed)
[1] = compound: CCCS(=O)(=O)Nc1ccc(F)c(C(=O)c2c[nH]c3ncc(-c4ccc(Cl)cc4)cc23)c1F [vemurafenib]
Summary of the method: (§1)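 The values are log-two fold changes in thermal stability compared with solvent controls and come from duplicates. They were obtained by TMTpro 16plex LC-MS/MS, with channel sums equalised, on the supernatant after 21,000xg for 90 min. That supernatant came from crude K562 extract at 1 mg/mL protein treated with 10 μM compound for 30 min, heated for 3 min across 48°C-58°C, pooled and brought to 0.5% NP-40 at 4°C.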

[2] = compound: CCCS(=O)(=O)Nc1ccc(F)c(C(=O)c2c[nH]c3ncc(Cl)cc23)c1F
Summary of the method: as §1

[3] = compound: CCN(CCCOc1ccc2c(Nc3cc(CC(=O)Nc4cccc(F)c4)[nH]n3)ncnc2c1)CCOP(=O)(O)O [barasertib]
Summary of the method: as §1

[4] = compound: CC[C@@H]1C(=O)N(C)c2cnc(Nc3ccc(C(=O)NC4CCN(C)CC4)cc3OC)nc2N1C1CCCC1
Summary of the method: as §1

[5] = compound: CC[C@@H]1C(=O)N(C)c2cnc(Nc3ccc(C(=O)N[C@H]4CC[C@H](N5CCN(CC6CC6)CC5)CC4)cc3OC)nc2N1C(C)C [volasertib]
Summary of the method: as §1

[6] = compound: CCn1c(C(=O)N(C2CC2)C2CC2)cc2c3c(ncn3C)c(Nc3cc(C)n(C)n3)nc21
Summary of the method: as §1

[7] = compound: CCn1cc(-c2ccnc3[nH]c(-c4cccc(CN(C)C)c4)cc23)c(-c2ccc(NC(=O)N(C)C)cc2)n1
Summary of the method: as §1

[8] = compound: CN1CCC(CNc2ccc3ncc(-c4cccc(OC(F)(F)F)c4)n3n2)CC1
Summary of the method: as §1

[9] = compound: CN1CCN(CCOc2cc(OC3CCOCC3)c3c(Nc4c(Cl)ccc5c4OCO5)ncnc3c2)CC1 [saracatinib]
Summary of the method: as §1

[10] = compound: CN1CCN(c2nc(C3=C(c4c[nH]c5ccccc45)C(=O)NC3=O)c3ccccc3n2)CC1 [sotrastaurin]
Summary of the method: as §1

[11] = compound: CN1CC[C@H](c2c(O)cc(O)c3c(=O)cc(-c4ccccc4Cl)oc23)[C@H](O)C1 [alvocidib]
Summary of the method: as §1

[12] = compound: CN1CCc2c(c3ccccc3n2Cc2ccc(C(=O)NO)cc2)C1 [Tubastatin A]
Summary of the method: as §1

[13] = compound: CNC(=O)C1=CC=CC=C1NC2=NC(=NC=C2Cl)NC3=C(C=C(C=C3)N4CCOCC4)OC
Summary of the method: as §1

[14] = compound: CNC(=O)c1ccc(Nc2ncc(C(F)(F)F)c(NCc3nccnc3N(C)S(C)(=O)=O)n2)cc1 [defactinib]
Summary of the method: as §1

[15] = compound: CNc1nc(-c2ccc3c(N)n[nH]c3c2)cc(N2C[C@@H](C(=O)NC3CCCCC3)CC[C@H]2C)n1
Summary of the method: as §1

[16] = compound: COC(=O)N[C@@H](C)CNc1nccc(-c2cn(C(C)C)nc2-c2cc(Cl)cc(NS(C)(=O)=O)c2F)n1 [encorafenib]
Summary of the method: as §1

[17] = compound: COC(=O)[C@H](CCSC)NC(=O)C1=C(C=C(C=C1)NC[C@H](CS)N)C2=CC=CC=C2
Summary of the method: as §1

[18] = compound: COc1cc(Nc2ncc3c(n2)-c2ccc(Cl)cc2C(c2c(F)cccc2OC)=NC3)ccc1C(=O)O [alisertib]
Summary of the method: as §1

[19] = compound: COc1cc2nc(-c3cc(F)ccc3O)nc(N[C@@H]3CNC[C@H]3C(C)(C)O)c2cc1OC
Summary of the method: as §1

[20] = compound: COc1cc2ncnc(Nc3ccc(F)c(Cl)c3)c2cc1OCCCN1CCOCC1 [gefitinib]
Summary of the method: as §1

Measured: log2 fold change

SHKBP1 (UniProt Q8TBC3)
active: [17] 0.274
inactive: [1] 0.079 | [2] -0.017 | [3] 0.03 | [4] -0.038 | [5] 0.033 | [6] -0.058 | [7] -0.093 | [8] 0.103 | [9] 0.013 | [10] 0.017 | [11] -0.038 | [12] -0.018 | [13] -0.002 | [14] 0.115 | [15] 0.046 | [16] -0.05 | [18] 0.019 | [19] 0.001 | [20] 0.023

SLC10A7 isoform 1 (UniProt Q0GE19)
inactive: [1] -0.024 | [2] 0.014 | [3] -0.07 | [4] 0.138 | [5] -0.023 | [6] -0.03 | [7] -0.177 | [8] 0.144 | [9] 0.075 | [10] 0.027 | [11] -0.041 | [12] 0.146 | [13] 0.001 | [14] 0.158 | [15] 0.037 | [16] 0.107 | [17] 0.044 | [18] 0.039 | [19] -0.052 | [20] 0.032

SET isoform 2 (UniProt Q01105)
inactive: [1] 0.003 | [2] -0.01 | [3] -0.035 | [4] 0.053 | [5] 0.04 | [6] -0.032 | [7] -0.027 | [8] 0.034 | [9] 0.018 | [10] 0.026 | [11] 0.022 | [12] 0.06 | [13] -0.021 | [14] -0.002 | [15] 0.04 | [16] -0.027 | [17] -0.018 | [18] -0.016 | [19] 0.02 | [20] -0.011

SKA2 (UniProt Q8WVK7)
inactive: [1] 0 | [2] 0.014 | [3] 0.078 | [4] 0 | [5] -0.043 | [6] 0.02 | [7] -0.032 | [8] -0.015 | [9] 0.028 | [10] -0.097 | [11] 0.003 | [12] -0.119 | [13] -0.077 | [14] -0.014 | [15] -0.02 | [16] 0.032 | [17] -0.001 | [18] 0.036 | [19] -0.009 | [20] 0.006

Reprinted from above (2 entries):
SLC10A7 isoform 1 (UniProt Q0GE19)
inactive: [1] -0.024 | [2] 0.014 | [3] -0.07 | [4] 0.138 | [5] -0.023 | [6] -0.03 | [7] -0.177 | [8] 0.144 | [9] 0.075 | [10] 0.027 | [11] -0.041 | [12] 0.146 | [13] 0.001 | [14] 0.158 | [15] 0.037 | [16] 0.107 | [17] 0.044 | [18] 0.039 | [19] -0.052 | [20] 0.032

SET isoform 2 (UniProt Q01105)
inactive: [1] 0.003 | [2] -0.01 | [3] -0.035 | [4] 0.053 | [5] 0.04 | [6] -0.032 | [7] -0.027 | [8] 0.034 | [9] 0.018 | [10] 0.026 | [11] 0.022 | [12] 0.06 | [13] -0.021 | [14] -0.002 | [15] 0.04 | [16] -0.027 | [17] -0.018 | [18] -0.016 | [19] 0.02 | [20] -0.011

Additional results follow.

SLC20A1 (UniProt Q8WUM9)
inactive: [1] 0.099 | [2] -0.004 | [3] 0.009 | [5] -0.028 | [6] -0.061 | [7] 0.153 | [8] -0.013 | [9] 0.063 | [10] -0.006 | [11] 0.002 | [12] 0.054 | [13] -0.012 | [14] -0.155 | [15] 0.016 | [16] -0.039 | [17] -0.057 | [18] -0.026 | [19] 0.036 | [20] 0.05
active: [4] 0.416

SHMT1 (UniProt P34896)
inactive: [1] 0.015 | [2] 0.023 | [3] -0.009 | [4] 0.005 | [5] 0.016 | [6] 0.013 | [7] -0.031 | [8] 0.036 | [9] 0.024 | [10] -0.016 | [11] -0.011 | [12] 0.017 | [13] 0.013 | [14] 0.006 | [15] 0.072 | [16] -0.016 | [17] -0.036 | [18] -0.018 | [19] -0.001 | [20] -0.044

SGTA (UniProt O43765)
inactive: [1] 0.006 | [2] 0.001 | [3] 0.122 | [4] 0.023 | [5] 0.008 | [6] -0.023 | [7] 0.009 | [8] -0.022 | [9] 0.003 | [10] -0.01 | [11] 0.004 | [12] 0.013 | [13] 0.001 | [14] -0.009 | [15] -0.026 | [16] -0.021 | [17] -0.001 | [18] 0.01 | [19] -0.001 | [20] -0.02

SLC1A5 (UniProt Q15758)
inactive: [1] 0.032 | [2] 0.01 | [3] -0.029 | [4] 0.076 | [5] 0.075 | [6] -0.037 | [7] -0.072 | [8] 0.045 | [9] 0.013 | [10] 0.013 | [11] -0.049 | [12] 0.039 | [13] -0.022 | [14] -0.021 | [15] 0.047 | [16] 0.007 | [17] -0.016 | [18] 0.019 | [19] 0.019 | [20] -0.005

SIKE1 (UniProt Q9BRV8)
inactive: [1] 0.073 | [2] 0.028 | [3] 0.182 | [4] 0.031 | [5] 0.019 | [6] -0.001 | [7] 0.045 | [8] -0.021 | [9] 0.043 | [10] 0.061 | [11] -0.006 | [12] 0.011 | [13] 0.062 | [14] 0.017 | [15] -0.018 | [16] 0.005 | [17] -0.126 | [18] -0.044 | [19] -0.037 | [20] 0.012

SHROOM1 (UniProt Q2M3G4)
inactive: [1] 0.045 | [2] -0.12 | [3] -0.007 | [4] -0.025 | [5] 0.136 | [6] -0.061 | [7] 0.07 | [8] -0.031 | [9] 0.042 | [10] 0.096 | [11] 0.014 | [12] -0.096 | [13] 0.068 | [14] 0.033 | [15] -0.032 | [16] 0.162 | [17] -0.03 | [18] 0.003 | [19] 0.038 | [20] 0.001

SERINC3 (UniProt Q13530)
inactive: [1] 0.05 | [2] 0.074 | [3] -0.02 | [4] 0.039 | [5] 0.066 | [6] -0.05 | [8] 0.224 | [9] 0.052 | [10] 0.081 | [11] -0.074 | [12] -0.008 | [13] 0.057 | [14] -0.091 | [15] 0.065 | [16] 0.023 | [17] -0.109 | [18] -0.047 | [19] 0.055 | [20] 0.014
active: [7] -0.443

SF3B4 (UniProt Q15427)
inactive: [1] -0.029 | [2] -0.007 | [3] 0.191 | [4] 0.057 | [5] 0.047 | [6] -0.018 | [7] -0.162 | [8] 0.119 | [9] 0.015 | [10] -0.011 | [11] -0.04 | [12] 0.07 | [13] 0.028 | [14] 0.014 | [15] 0.016 | [16] -0.03 | [17] 0.008 | [18] 0.007 | [19] -0.018 | [20] -0.079

SFXN2 (UniProt Q96NB2)
inactive: [1] -0.011 | [2] 0 | [3] 0.03 | [4] 0.019 | [5] 0.027 | [6] 0.025 | [7] 0.139 | [8] -0.073 | [9] -0.04 | [10] 0.025 | [11] -0.037 | [12] 0.006 | [13] 0.027 | [14] 0.055 | [15] 0.006 | [16] -0.001 | [17] -0.004 | [18] 0.055 | [19] -0.028 | [20] 0.005

SFSWAP isoform 2 (UniProt Q12872)
inactive: [1] 0.043 | [2] -0.012 | [3] 0.01 | [4] 0.028 | [5] -0.027 | [6] -0.005 | [7] -0.005 | [8] 0.014 | [9] -0.007 | [10] -0.019 | [11] -0.152 | [12] 0.01 | [13] -0.036 | [14] 0.011 | [15] 0.092 | [16] 0.059 | [17] -0.026 | [18] -0.059 | [19] 0.039 | [20] -0.043

SF3A1 (UniProt Q15459)
inactive: [1] -0.022 | [2] -0.001 | [3] 0.016 | [4] 0.052 | [5] 0.008 | [6] 0.015 | [7] -0.105 | [8] 0.084 | [9] -0.006 | [10] 0.008 | [11] -0.027 | [12] 0.02 | [13] -0.023 | [14] 0.004 | [15] 0.004 | [16] 0.012 | [17] 0.006 | [18] -0.006 | [19] 0.004 | [20] -0.009

SERPINB9 (UniProt P50453)
inactive: [1] 0.009 | [2] 0.007 | [3] -0.048 | [4] -0.003 | [5] 0.029 | [6] -0.037 | [7] 0.05 | [8] 0.025 | [9] 0.009 | [10] -0.03 | [11] 0.01 | [12] 0.025 | [13] -0.012 | [14] -0.028 | [15] -0.003 | [16] -0.062 | [17] -0.007 | [18] -0.013 | [19] 0.004 | [20] -0.009
